# The list is a part of this screen's results and no random one: it is rich in T/C values a quarter to a half above the control, in often repeated tests (any T/C) and in doses without a T/C. Other doses and runs of a compound stand elsewhere. T/C gives the treated animals as a percentage of the vehicle group. Some entries give survivors of the animals treated and no T/C: the source files T/C as zero there, which appears to mark a toxic dose or a test without result, not a measured value. Some survivor counts are full or nearly so, which does not show that the dose was tolerated: survival well below the control is almost never listed, so the zero probably covers shortened survival too. Counts of survivors are from the toxicity check (mostly the fifth day) where no day follows; animals may have died later. Schedule codes are those of the source, taken here to give the interval after Q, in days (D) or hours (H), and the number of doses after X. Some entries hold several experiments; the values are given in rising order. Some structures stand for samples that the source files as different forms (salt, stereo form or complex); doses refer to the form tested. Signs of the kind (2×) stand for listed records that agree. For survival time, the PubChem record calls one and a half times the control and up active, and a quarter to a half above the control has no call in these data; cut-offs in other NCI protocols can differ.
# Tested on: P388 leukemia ip, CD2F1 mice, survival T/C
# Assay: NCI In Vivo Anticancer Drug Screen. Data for tumor model P388 Leukemia (intraperitoneal) in CD2F1 (CDF1) mice
# Details: T/C endpoint: median survival time, higher T/C = longer survival
# [1] = dose: 25.0 mg/kg/injection, schedule: Q01DX009 (ip), vehicle: saline
# [2] = dose: 100.0 mg/kg/injection, schedule: Q01DX009 (ip), vehicle: saline
# [3] = dose: 200.0 mg/kg/injection, schedule: Q01DX009 (ip), vehicle: saline
# [4] = dose: 200.0 mg/kg/injection, schedule: Q01DX001 (ip), vehicle: Klucel (hydroxypropylcellulose) (HPC)
# [5] = dose: 400.0 mg/kg/injection, schedule: Q01DX001 (ip), vehicle: Klucel (hydroxypropylcellulose) (HPC)
# [6] = dose: 240.0 mg/kg/injection, schedule: Q01DX005 (ip), vehicle: saline with Tween-80
# [7] = dose: 200.0 mg/kg/injection, schedule: Q01DX009 (ip), vehicle: saline with Tween-80
# [8] = dose: 200.0 mg/kg/injection, schedule: Q01DX005 (ip), vehicle: saline with Tween-80
smiles,measurement,setting,value
O=C(Nc1cccc(C(=O)Nc2ccc(C3=NCCN3)cc2)c1)c1ccc(C2=NCCN2)cc1,T/C,[1],127 % of control
COc1ccc(C2=C[P+](c3ccccc3)(c3ccccc3)C=C(c3ccccc3)O2)cc1,survivor count,"dose: 6.0 mg/kg/injection, schedule: Q01DX005 (ip), vehicle: saline with Tween-80",1 of 5
same,survivor count,"dose: 12.5 mg/kg/injection, schedule: Q01DX005 (ip), vehicle: saline with Tween-80",0 of 5 and 4 of 5
same,survivor count,"dose: 25.0 mg/kg/injection, schedule: Q01DX005 (ip), vehicle: saline with Tween-80",0 of 5
same,survivor count,"dose: 50.0 mg/kg/injection, schedule: Q01DX005 (ip), vehicle: saline with Tween-80",0 of 5
CCC1=CC(C(O)CC(C)C)C(C)(Cc2ccc(CC)cn2)NC1c1ccccc1 (centres undefined),survivor count,"dose: 200.0 mg/kg/injection, schedule: Q04DX002 (ip), vehicle: saline with Tween-80",0 of 6
same,survivor count,"dose: 400.0 mg/kg/injection, schedule: Q04DX002 (ip), vehicle: saline with Tween-80",0 of 6
c1ccc(-n2ccnc2C2C3CCN2CC3)cc1 (centres undefined),survivor count,[2],3 of 6
same,survivor count,[3],0 of 6
COc1ccc2c(c1OC)C(=O)N1C2=Cc2c(cc3c(c2OC)OCO3)CC1N(C)C (centres undefined),survivor count,"dose: 240.0 mg/kg/injection, schedule: Q01DX005 (ip), vehicle: saline",4 of 6
CCOC(=O)/N=[N+](\[O-])c1ccc(Cl)cc1,survivor count,[4],0 of 6
same,survivor count,[5],1 of 6
CCc1ccc(N2C(=O)C(CC(=O)O)SC23C(=O)N(Cc2ccccc2)c2ccccc23)cc1 (centres undefined),survivor count,[6],6 of 6
CC(C)(C)N(C/C=C/CN(Cc1ccccc1)Cc1ccccc1)C(C)(C)C,survivor count,[7],4 of 6
COC(=O)CCn1nc(-c2ccccc2)c(-c2ccccc2)c(S(C)(=O)=O)c1=O,survivor count,"dose: 100.0 mg/kg/injection, schedule: Q04DX002 (ip), vehicle: distilled water + Tween-80",6 of 6
CC(C)N1C(=O)C2C3C=CC(C3)C2C1=O (centres undefined),survivor count,"dose: 100.0 mg/kg/injection, schedule: Q04DX002 (ip), vehicle: saline with Tween-80",0 of 6
Cc1c(OCC(=O)N/N=C/c2ccc(N(CCCl)CCCl)cc2)ccc2c(=O)c3ccccc3oc12,survivor count,"dose: 240.0 mg/kg/injection, schedule: Q01DX005 (ip), vehicle: Klucel (hydroxypropylcellulose) (HPC)",3 of 6
CC(=O)OCc1c(-c2ccccc2)nc2n1CCS2,survivor count,"dose: 100.0 mg/kg/injection, schedule: Q01DX001 (ip), vehicle: Klucel (hydroxypropylcellulose) (HPC)",3 of 6
same,survivor count,[4],0 of 6 and 4 of 6
same,survivor count,[5],0 of 6 (2×)
CC1CCCC(C)N1NC1=NCCO1 (centres undefined),survivor count,"dose: 100.0 mg/kg/injection, schedule: Q04DX003 (ip), vehicle: saline with Tween-80",3 of 6
c1ccc(C2SC3=NCCCN3Cc3ccccc32)cc1 (centres undefined),survivor count,[2],0 of 6
same,survivor count,[3],0 of 6
CC(=O)O/N=C/c1cc[n+](C)cc1,survivor count,"dose: 200.0 mg/kg/injection, schedule: Q04DX003 (ip), vehicle: saline",3 of 6
same,survivor count,"dose: 400.0 mg/kg/injection, schedule: Q04DX003 (ip), vehicle: saline",0 of 6
ClC(Cl)(Cl)C1=NC2=C(Br)C=C(Br)C3=NC(C(Br)(Br)Br)=NC(=N1)N32,survivor count,"dose: 240.0 mg/kg/injection, schedule: Q01DX005 (ip), vehicle: Klucel + Tween-80",1 of 6
CCCCCCCCCCCCCCCCSc1ccncc1NN=O,survivor count,[7],4 of 6
CCNCc1c(C)[nH]c2ccccc2c1=O,survivor count,"dose: 50.0 mg/kg/injection, schedule: Q01DX009 (ip), vehicle: saline with Tween-80",6 of 6
same,survivor count,[7],0 of 6
COC1CCCC=C1[N+](=O)[O-] (centres undefined),survivor count,"dose: 50.0 mg/kg/injection, schedule: Q01DX005 (ip), vehicle: saline",0 of 6
same,survivor count,"dose: 100.0 mg/kg/injection, schedule: Q01DX005 (ip), vehicle: saline",0 of 6
same,survivor count,"dose: 200.0 mg/kg/injection, schedule: Q01DX005 (ip), vehicle: saline",0 of 6
COC(=O)C1=C(C(=O)OC)[C](C(=O)c2ccccc2)([Sn]([CH3])([CH3])[CH3])N=N1 (centres undefined),survivor count,"dose: 6.25 mg/kg/injection, schedule: Q01DX009 (ip), vehicle: saline",0 of 6
same,survivor count,"dose: 12.5 mg/kg/injection, schedule: Q01DX009 (ip), vehicle: saline",0 of 6
same,survivor count,[1],0 of 6
same,survivor count,"dose: 50.0 mg/kg/injection, schedule: Q01DX009 (ip), vehicle: saline",0 of 6
same,survivor count,[2],0 of 6
same,survivor count,[3],0 of 6
COC(=O)c1cc2c(s1)C(=O)c1ccccc1-2,survivor count,"dose: 400.0 mg/kg/injection, schedule: Q01DX009 (ip), vehicle: saline with Tween-80",6 of 6
CCOC(=O)C(C#N)(CCC(=NC(C)(C)C)Nc1ccccc1C#N)CCC(=NC(C)(C)C)Nc1ccccc1C#N (centres undefined),survivor count,[7],6 of 6
CO/N=C(\C(O)C(C)O)C(OC)C1Cc2cc3cc(OC4CC(OC(C)=O)C(OC5CC(O)C(OC)C(C)O5)C(C)O4)cc(O)c3c(O)c2C(=O)C1OC1CC(OC2CC(OC3CC(C)(O)C(OC(=O)C(C)C)C(C)O3)C(O)C(C)O2)C(O)C(C)O1 (centres undefined),T/C,"dose: 0.13 mg/kg/injection, schedule: Q01DX005 (ip), vehicle: water",126 % of control
same,T/C,"dose: 0.5 mg/kg/injection, schedule: Q01DX005 (ip), vehicle: water",128 and 131 % of control
same,T/C,"dose: 1.0 mg/kg/injection, schedule: Q01DX005 (ip), vehicle: water",135 % of control
same,survivor count,"dose: 2.0 mg/kg/injection, schedule: Q01DX005 (ip), vehicle: water",1 of 5
CCCCN(CCCC)CC(C)(C)C(O)c1ccc(OC)c2ccccc12 (centres undefined),survivor count,"dose: 100.0 mg/kg/injection, schedule: Q01DX005 (ip), vehicle: saline with Tween-80",2 of 5
same,survivor count,[8],0 of 5
Oc1cc2ccccc2c(-c2c(O)c(O)cc3ccccc23)c1O,survivor count,[8],0 of 6
same,T/C,"dose: 400.0 mg/kg/injection, schedule: Q01DX001 (ip), vehicle: saline with Tween-80",125 and 126 % of control
CNC(=O)Nc1ccc(/C(C)=N/NC(N)=S)cc1,survivor count,[6],6 of 6

# Source: PubChem BioAssay AID330 (DTP/NCI, 2004)
